Results taken from PubChem BioAssay AID1259415 (National Center for Advancing Translational Sciences (NCATS), 2018).
Among all 410,000 compounds or so, about 18,000 (4.4%) were called active. The inconclusive results got no clear call from the source; some entries with a clear call stand among them for comparison. Cut-off read from the data, not from the text of the source: active = activity change below about -60%; inconclusive = no clear call, values can overlap the other calls; inactive = above about -39%.

Test: qHTS Assay for inhibitors of the human cytomegalovirus (HCMV)
Settings: HFF cells, HCMV-luciferase reporter, 72 h; at 57.5 µM; active compounds read low
Procedure, shortened: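 Luciferase read-out from HCMV-luciferase-infected HFFs (MOI 1 PFU/cell) 72 h post infection at 37C; compounds added after 16 h cell attachment; activity normalized between buffer-only basal and Salinomycin (10uM) inhibitor controls.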
% is set by controls: 0 for no effect and ±100 for the full control effect.

Row | SMILES | activity change, negative = inhibition
1 | COc1ccc(Cn2c(CNC(=O)Cc3cccc([N+](=O)[O-])c3)nc3cccnc32)cc1 | inconclusive: -46.1%
2 | CCOc1ccc(OCC)c(NC(=O)CSc2nc3ccccc3c(=O)n2C)c1 | active: -70.4%
3 | CCCc1nc(SCC(=O)NNC(=O)c2ccc(OC)cc2)c2ccccc2n1 | inconclusive: -40.6%
4 | CCc1ccc(C(=O)c2cn(CC(=O)Nc3ccc4c(c3)OCCO4)c3ccc(CC)cc3c2=O)cc1 | inactive: 1.16%
5 | Cc1ccccc1OCC(=O)Nc1ccc(C(=O)OCc2cc(=O)n3c(C)csc3n2)cc1 | active: -86.7%
6 | COc1ccc(Nc2cc(C(=O)NCCCN3CCN(C)CC3)c3ccccc3n2)cc1OC | inactive: 22.3%
7 | COc1ccc(CCNC(=O)c2ccc3c(Cl)c4c(nc3c2)CCCC4)cc1OC | inconclusive: -44.6%
8 | Cc1c(CCC(=O)NCc2ccc(F)cc2)c(=O)oc2cc(O)ccc12 | inactive: -10.5%
9 | CCCN(CCC)C(=O)c1c[nH]c2ccc(S(=O)(=O)N(C)c3ccc(OCC)cc3)cc2c1=O | inconclusive: 0%
10 | COc1cccc(N=Nc2c(O)[nH]c(=S)[nH]c2=O)c1 | inconclusive: -44.6%
11 | Cc1cccc(C(=O)N2CCN(c3ccc(C(F)(F)F)cn3)CC2)c1C | inconclusive: -47%
12 | COc1cccc(C(=O)NCC(=O)N2CCN(c3ccc(C(F)(F)F)cn3)CC2)c1 | inconclusive: -49.5%
13 | OC(COc1ccc(OCc2ccccc2)cc1)CN1CCCCC1 (stereo not given) | inconclusive: -49.3%
14 | Cc1ccc(N=Nc2c(C)[nH]n(C(N)=S)c2=O)cc1 | inactive: 22.5%
15 | O=C(C(Cc1ccccc1)N1C(=O)c2ccccc2C1=O)N1c2ccccc2CCc2ccccc21 (stereo not given) | active: -66.4%
16 | O=C(Nc1ccc(OC(F)(F)F)cc1)C1CCCN(S(=O)(=O)c2ccc(Br)s2)C1 (stereo not given) | inactive: 6.14%
17 | CCOC(=O)C1CN(C)CCC1=O (stereo not given) | inconclusive: -44.3%
18 | Cc1ccc(S(=O)(=O)/N=C(/Nc2ccc(O)c(C(=O)O)c2)c2ccccc2)cc1 | inactive: 35.1%
19 | C=C(C)COc1ccc2c(C)c(CCC(=O)NC3CC3)c(=O)oc2c1 | inconclusive: -55%
20 | Cc1ccc(-c2nc(CN(Cc3c(C)nn(C)c3C)C(C)C)c(C)o2)o1 | inconclusive: -43.1%
21 | Cc1cc(C)cc(N(CC(=O)NC2CCCC2)C(=O)CCC(=O)Nc2nccs2)c1 | inconclusive: -43.8%
22 | CCOc1ccc(CC(=O)NCCS(=O)(=O)N2CCN(c3ccc(OC)cc3)CC2)cc1 | inactive: -14.2%

Four records drawn at random from those above:
Row | SMILES | activity change, negative = inhibition
19 | C=C(C)COc1ccc2c(C)c(CCC(=O)NC3CC3)c(=O)oc2c1 | inconclusive: -55%
11 | Cc1cccc(C(=O)N2CCN(c3ccc(C(F)(F)F)cn3)CC2)c1C | inconclusive: -47%
12 | COc1cccc(C(=O)NCC(=O)N2CCN(c3ccc(C(F)(F)F)cn3)CC2)c1 | inconclusive: -49.5%
10 | COc1cccc(N=Nc2c(O)[nH]c(=S)[nH]c2=O)c1 | inconclusive: -44.6%

(cont.)

Row | SMILES | activity change, negative = inhibition
23 | COc1ccc(NS(=O)(=O)c2ccc3oc(SCc4ccc(F)cc4)nc3c2)cc1 | active: -61%
24 | Cc1ccc(NC(=O)Nc2cccc(C(F)(F)F)c2)nc1 | inconclusive: -49.1%
25 | COCCNC(=S)N/N=C(\C)c1ccc(Cl)c(Cl)c1Cl | inactive: 2.68%
26 | c1ccc(-c2csc3ncn4nnnc4c23)cc1 | active: -100%
27 | COc1ccc(NC(=O)c2c(N)c(C(=O)c3ccc(OC)cc3)n3ccccc23)cc1 | inactive: -17.4%
28 | CC(C)Oc1cc(F)ccc1-c1cc(C(=O)NCc2ccccn2)[nH]n1 | active: -76.2%
29 | CC(C)N1CCc2c(sc(NC(=O)c3ccc(S(=O)(=O)N4CCCCC4C)cc3)c2C(N)=O)C1 (stereo not given) | inconclusive: -43.8%
30 | CCN(CC(=O)Nc1c(F)cccc1F)C(=O)CCNS(=O)(=O)c1ccccc1C(F)(F)F | inactive: -8.49%
31 | CC1N(C)c2cc(NC(=O)c3cccs3)c(P(=O)(Nc3ccc([N+](=O)[O-])cc3)N3CCOCC3)cc2C1(C)C (stereo not given) | inconclusive: -50.2%
32 | CCOCCn1c(=NC(=O)c2cc3ccccc3oc2=O)sc2cc(S(N)(=O)=O)ccc21 | inconclusive: -48.3%
33 | O=C(c1cc(COc2ccccc2)on1)N1CCCC(CN2CCOCC2)C1 (stereo not given) | inconclusive: 0%
34 | FC(F)(F)c1ccc(N2CCN(Cc3ccc4c(c3)OCO4)CC2)nc1 | active: -64.4%
35 | CCCn1c2ccc(F)cc2c2nnc(NN)nc21 | inactive: -24.4%
36 | Cc1ccc(OCCC(=O)NNC(=O)c2ccncc2)cc1 | inactive: 18.2%
37 | CCCCCCCCCCCCCCCC[n+]1cccc2ccccc21 | active: -98.2%
38 | O=C(CCCn1c(=O)c2cccn2c2cccnc21)Nc1ccccc1C(F)(F)F | inconclusive: -48%
39 | CC1(C(=O)NS(=O)(=O)c2ccc(F)cc2F)CCN1C(=O)CC1CCCC1 (stereo not given) | inconclusive: -40.4%
40 | CC1=C(C(=O)Nc2ccccc2C)C(c2cccs2)n2nc(SCc3cc(C)ccc3C)nc2N1 (stereo not given) | inactive: 5%
41 | COc1cc(OC)c(OC)cc1CNc1cc(C)ccc1OC | inconclusive: -52.6%
42 | CC1(C(=O)NS(=O)(=O)C2CC2)CCCN(C(=O)C2(c3ccc(Cl)cc3)CCCC2)C1 (stereo not given) | inactive: 11.2%
43 | CC1=C[C@H]2OC(=O)[C@@H](C)[C@H]2C[C@@H]2[C@H]1C[C@@H](O)[C@@]2(C)O | inconclusive: -40.1%
44 | Cc1c(CCC(=O)O)c(=O)oc2cc3occ(-c4ccc(Cl)cc4)c3cc12 | inconclusive: -41.2%

Row | SMILES | activity change, negative = inhibition
45 | O=C1CN(C(=O)CSc2nc(-c3ccc(Cl)cc3)cs2)c2ccccc2N1 | inconclusive: -40.4%
46 | CCCOc1ccc(C(=O)NNC(=S)NC(C)=O)cc1 | active: -93.7%
47 | Cc1ccc(NC(=O)c2c([N+](=O)[O-])c(C(C)(C)C)nn2C)cc1 | inconclusive: -47.1%
48 | CN(C)S(=O)(=O)N(CC(=O)Nc1ccc(Br)cc1F)c1ccccc1 | inactive: -5.05%
49 | CC(C)Oc1cc(S(=O)(=O)N2CCCCC2)ccc1N | inconclusive: -59.7%
50 | Nc1nc(-c2ccccn2)nc(N)c1Cc1ccccc1F | active: -102%
51 | Cc1ccc(S(=O)(=O)NC(=O)NC2=NC(C)(C)N(c3ccc(Cl)c(Cl)c3)C(N)=N2)cc1 | inconclusive: -51.9%
52 | O=C(c1cc(-c2ccccc2Cl)on1)N1CCCC1 | inconclusive: -52.2%
53 | CCN(CC)CC(O)Cn1c2ccccc2c2ccccc21 (stereo not given) | inconclusive: -42.3%
54 | O=C(Nc1ccccc1Oc1ccccc1)c1cccs1 | inconclusive: -49.2%
55 | Cc1onc(-c2ccccc2)c1CNS(=O)(=O)c1cccc(Br)c1 | active: -73%
56 | Cc1ccc2[nH]c(=O)c(CN(Cc3cccs3)C(=S)NCc3ccco3)cc2c1 | inconclusive: -55%
57 | CN(C(=O)CCCN1C(=O)c2ccccc2C1=O)C1CCCCC1 | inconclusive: 0%
58 | Cc1ccc(-n2c3c(c(=O)[nH]c2=O)C(NS(=O)(=O)c2ccc(Cl)cc2)(C(F)(F)F)C(=O)N3)cc1 (stereo not given) | inconclusive: -40.8%
59 | O=C(CN1CCCCC1)Nc1ccc(NC(=O)c2ccc(Cl)cc2)cc1Cl | inconclusive: -59.7%
60 | O=C1c2ccccc2NC(c2ccc(O)cc2)N1Cc1ccco1 (stereo not given) | inactive: 38%
61 | O=c1c2oc3ccccc3c2n(Cc2ccc(Cl)cc2)c(=O)n1Cc1ccc2c(c1)OCO2 | inconclusive: -42.6%
62 | CCOC(=O)c1cc2sccc2n1CCCN1C(=O)c2ccccc2C1=O | inconclusive: -40.4%
63 | COc1ccc(C)cc1NC(=O)C1CCCN(S(=O)(=O)c2ccc3c(c2)CCCN3C(C)=O)C1 (stereo not given) | inconclusive: -40.7%
64 | COc1cc(O)c(C(CC(=O)N2CCCCC2)c2cc(OC)c(OC)c(OC)c2)c(OC)c1 (stereo not given) | inactive: -1.57%
65 | Cc1cccc2c(C(=O)Nc3ccc(Br)cc3)cc(-c3ccccn3)nc12 | inactive: -32.4%
66 | O=C(Nc1nnc(SCc2ccc(Cl)cc2)s1)C1CC(=O)N(Cc2ccccc2)C1 (stereo not given) | inconclusive: -46.8%

Row | SMILES | activity change, negative = inhibition
67 | CCn1cc(S(=O)(=O)Nc2ccc3c(c2)OCCO3)cn1 | inconclusive: -40.5%
68 | c1ccc(C(c2ccccc2)c2ccn[nH]2)cc1 | inconclusive: -40.3%
69 | Cc1nc2c(c(SCC(=O)Nc3ccccc3C(F)(F)F)n1)CCC2 | inconclusive: -57.9%
70 | CCOc1ccccc1NC(=O)c1cc(CC(C)C)oc1C | inconclusive: -42%
71 | CCN(c1ccccc1)S(=O)(=O)c1ccc(NC(=S)NC(=O)c2ccc(Br)o2)cc1 | inconclusive: -53.6%
72 | CCN(CC)S(=O)(=O)c1ccc(/C(O)=C(\C#N)c2nc3ccccc3n2C)cc1 | inconclusive: -47.6%
73 | Cc1ccc(NS(=O)(=O)c2ccc3c(c2)NC(=O)CO3)c(C)c1 | inconclusive: 0%
74 | O=C(COc1ccc2c3c(c(=O)oc2c1)CCC3)c1ccc2c(c1)OCO2 | inconclusive: -49.4%
75 | CCOc1cc(C(=S)N2CCOCC2)ccc1OS(=O)(=O)c1ccc(OC)cc1 | inactive: -37%
76 | COc1ccc(C2=NCN(c3ccc(C)cc3)C(=S)N2)cc1 | inactive: -14%
77 | COc1ccc(NC(=O)Cn2nnc(-c3ccccc3)c2COc2ccc(C(C)=O)cc2)cn1 | inactive: 21.8%
78 | NNC(=O)c1cc2c(s1)CCCCCC2 | inconclusive: -40.9%
79 | CCN(CC)C(=O)CSc1nc2c(c(-c3cccnc3)c1C#N)CCCC2 | inconclusive: -55.1%
80 | COC(=O)C1=C[C@@H](C(=O)OC)[C@@H]2C3=C(C(=O)[C@]2(C)NC(=O)c2ccccc2)[C@H](C)n2c(=O)n(-c4ccccc4)c(=O)n2[C@@H]3C1 | inactive: -9.39%
81 | Fc1ccc(-c2nc(-c3cccs3)no2)cc1 | inconclusive: -41.2%
82 | COc1cc(OC)cc(C(=O)NCCc2csc(-c3cccc(C)c3)n2)c1 | inconclusive: -50.8%
83 | O=C(O)c1ccc2c(c1)C(=O)N(CCc1c[nH]c3ccccc13)C2=O | inactive: 47.6%
84 | CCOc1ccc(/C=N/NC(=S)Nc2c(C)cccc2C)cc1 | inconclusive: -42.8%
85 | COC(=O)C1=C(c2ccc(F)cc2F)C[C@@H]2CC[C@H]1N2C(=O)N1CCC(O)(c2ccc(Cl)cc2)CC1 | inconclusive: -48.8%
